Binding signal data for 42 sequences are collected here from publication PMC7819943, “Rice protein-binding microarrays: a tool to detect cis-acting elements near promoter regions in rice”.

Chains of the proteins cited; added tags and fusions are not shown.
UniProt Q0JBA9, entry or part of it: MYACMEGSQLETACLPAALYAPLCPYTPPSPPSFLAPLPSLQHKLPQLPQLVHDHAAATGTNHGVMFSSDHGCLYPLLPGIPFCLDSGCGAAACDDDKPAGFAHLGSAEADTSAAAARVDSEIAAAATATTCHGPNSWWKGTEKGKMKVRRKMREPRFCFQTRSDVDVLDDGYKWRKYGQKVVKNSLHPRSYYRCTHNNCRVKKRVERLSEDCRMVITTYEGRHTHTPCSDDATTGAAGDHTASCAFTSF

The other results are listed elsewhere or left out.

For the assay, the target named is OsWRKY34 (Oryza sativa, UniProt Q0JBA9 1-250). As to the kind of experiment: protein-binding microarray (RPBM); PBS, 2% BSA, 51.3 ng/ul salmon testes DNA, 50 uM zinc acetate, 200 nM TF, 25 C, 1 h; high values mean tight binding. Particulars: protein: recombinant; tags: N-terminal polyhistidine and DsRed monomer fusion (pET32a); label: CyDye5-dUTP incorporated in the synthesized complementary strand; 3' TTTTT single-stranded linker to array surface; dsDNA, one strand shown. The method in brief: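 The binding signal for each feature is its fluorescence intensity in arbitrary units. An Axon 4000B scanner was used to read a custom Agilent array that had been made double-stranded with Cy5-dUTP primer extension, blocked with 2% BSA, incubated at 25 °C for 1 h with 200 nM protein in PBS, 2% BSA, salmon testes DNA and 50 µM zinc acetate, and washed. The protein was an N-terminal polyhistidine–DsRed transcription factor fusion from E. coli BL21-CodonPlus, purified on Ni–NTA.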
As to “TAAAATTCTGTTCCGCCGCGTTTGCCCTCGTCAACTAATCCGGAGTCACCTAGTGCAG”, the binding signal is 9750 fluorescence intensity (a.u.).
The result for “AGTGTAGGATTTTAATTCCTTTATTTTTCCTCCATTATTCCGGAGTCACCTAGTGCAG” reads 8250 fluorescence intensity (a.u.).
As to “AGCTTTGTTGTTTCTTGCACCGATCGTCGTTTTACTCGTGCGGAGTCACCTAGTGCAG”, the binding signal is 15000 fluorescence intensity (a.u.).
Consider “TCCATTTCCCGCCGCCTCCCCTCTCGCGATCCATATCCATCGGAGTCACCTAGTGCAG”, for which the binding signal was 8050 fluorescence intensity (a.u.).
Under “CTATTGTTGTCTGTTTCTATCATTCAGCTGCGGGCCCAGGCGGAGTCACCTAGTGCAG” stands 8940 fluorescence intensity (a.u.); under “CCGCACGGGCACCACCTCGCCGCCCGCCACCACCGCTTCCCGGAGTCACCTAGTGCAG”, 10800 fluorescence intensity (a.u.).
Under “AGAAAGTTTCCTTTGATTTTTTTTGGTGCAACCTTTTTTCCGGAGTCACCTAGTGCAG” stands 8040 fluorescence intensity (a.u.); under “GCCCATAACCCACCACGCGTCTCTTCAAATTTCCGCCCCTCGGAGTCACCTAGTGCAG”, 9290 fluorescence intensity (a.u.).
The result for “ATTTTGAGTTTTTGCTTGCATTGTTTGATCACTCGTCTTACGGAGTCACCTAGTGCAG” reads 9530 fluorescence intensity (a.u.); that for “TTGACCTTTTCTTTGTTGAACGTTGACCGTTCCGTCTTATCGGAGTCACCTAGTGCAG”, 14300 fluorescence intensity (a.u.); that for “CGACGCCGCCACCGTCCACTCCGCCGCCGCCATCGTCCTCCGGAGTCACCTAGTGCAG”, 10300 fluorescence intensity (a.u.).
In the case of “CTCGCTCTCCCACTCGCACCTGCGCCGCATCCCCAATCCCCGGAGTCACCTAGTGCAG”, the binding signal is 8750 fluorescence intensity (a.u.).
Under “TCGACCTTCCTTTCCTGTCGCCATCTTCACCGTCTTGCCACGGAGTCACCTAGTGCAG” stands 9710 fluorescence intensity (a.u.); under “CTTGAGTCTTCAGTTTGTTATTTTTCAGTTTCGATTCTCACGGAGTCACCTAGTGCAG”, 10500 fluorescence intensity (a.u.).
Under “TTGTACTACTTATGAACCGTTAATCCACTGTCCTGTATGTCGGAGTCACCTAGTGCAG” stands 9380 fluorescence intensity (a.u.).
Under “TCGCCCCAAATCCTCACGCCCGGTCATGAAATTGTATCCACGGAGTCACCTAGTGCAG” stands 10000 fluorescence intensity (a.u.); under “TCCTTGGTCTGTGTGTCAAGATGAAATATGACTATCAAAACGGAGTCACCTAGTGCAG”, 8900 fluorescence intensity (a.u.).
“GTCCCCTACCAATAGCCACATTATTTGACTGGACTATAAACGGAGTCACCTAGTGCAG”: the binding signal was 8190 fluorescence intensity (a.u.).
Under “ACCTTCCTAGTTCTTCCCACACGTTCGTTACTCCAGCACCCGGAGTCACCTAGTGCAG” stands 10500 fluorescence intensity (a.u.).
Under “GGTAAACTCTATTTTTTAGCCCTTATATGTTATTTTTAATCGGAGTCACCTAGTGCAG” stands 8090 fluorescence intensity (a.u.); under “GCCGTATCATATCCATGACCTTTGTCCTTGCGTTGCCGCCCGGAGTCACCTAGTGCAG”, 10700 fluorescence intensity (a.u.); under “GGGCGCCTCTCTGTCAGTTTCTCCACTACACTGTGCGCGTCGGAGTCACCTAGTGCAG”, 9940 fluorescence intensity (a.u.).
For the sequence “GCTTCCAATGGATGTCTTCCTTTCCTGAGCTGCTGTCTCCCGGAGTCACCTAGTGCAG”, the binding signal is 8680 fluorescence intensity (a.u.).
The result for “CATTTCCGTTTTCATTTCCATATTTTTTACCATTTCCATTCGGAGTCACCTAGTGCAG” reads 10000 fluorescence intensity (a.u.); that for “GGTTTCCGTGTCTAACTTTAACTGTCCGTCTTATATGAAACGGAGTCACCTAGTGCAG”, 11000 fluorescence intensity (a.u.); that for “TATTGAGTGTATCCATCATAGATTTTATGTTTCATATTTTCGGAGTCACCTAGTGCAG”, 8820 fluorescence intensity (a.u.).
The result for “GAGTCACACAAAGCCTGGCCTTTTTGCGTTGCGCAACCCGCGGAGTCACCTAGTGCAG” reads 8490 fluorescence intensity (a.u.).
Under “CGCTGCTCGCCCTGTGCCTCATTCCGCCTTGACAAATGTCCGGAGTCACCTAGTGCAG” stands 12400 fluorescence intensity (a.u.); under “GTGCTCATCCGCCTCCTCGGGTCGTCTCCATCGACCTCCTCGGAGTCACCTAGTGCAG”, 9120 fluorescence intensity (a.u.).
Consider “ACAGTCAACCGAAATATTTGACTGTCCAATTTTTATTACACGGAGTCACCTAGTGCAG”, for which the binding signal was 10000 fluorescence intensity (a.u.).
Under “TGCATTTTTTATTGTTATCGATCTTTTATTTTTTACTGAACGGAGTCACCTAGTGCAG” stands 9270 fluorescence intensity (a.u.); under “ATTTACCAGATTTGGGCTGCAATTATTGGGCGCCATTTTTCGGAGTCACCTAGTGCAG”, 8890 fluorescence intensity (a.u.); under “GGTGTAGGGTTTTAGTTTACGAGATATATTTACGAATTTGCGGAGTCACCTAGTGCAG”, 10500 fluorescence intensity (a.u.).
The result for “CTCCGCCATCCACTCCCACTACTCTACCATCGTGCGCGCGCGGAGTCACCTAGTGCAG” reads 9830 fluorescence intensity (a.u.); that for “CCTCCATCTATGTCCTGCTGTCCAACATCTACGCGGATGCCGGAGTCACCTAGTGCAG”, 9400 fluorescence intensity (a.u.); that for “CACGGTCCTGCTCGCCCTGTCCAGTCACGTTCAATCTTTTCGGAGTCACCTAGTGCAG”, 13600 fluorescence intensity (a.u.).
Under “TCGCTAGCGCAATCGCCTCGTCGGTATCGACCTTTTTTTTCGGAGTCACCTAGTGCAG” stands 9230 fluorescence intensity (a.u.); under “CTTGCCTCTGTCTCTTTTACCTCAGTTTCGCGTATATCCTCGGAGTCACCTAGTGCAG”, 8530 fluorescence intensity (a.u.); under “GTTTACCTGATGGCACTCTCTGTATACCCCTGTGGAATTGCGGAGTCACCTAGTGCAG”, 8100 fluorescence intensity (a.u.).
In the case of “GTTTTGGTGACTTTTCCATTTCGAATCATTTATTAACCTCCGGAGTCACCTAGTGCAG”, the binding signal is 8180 fluorescence intensity (a.u.).
The result for “TTGAGCCTTAGAGTTGGACAGGTTATTGCAGCTGTTCTTGCGGAGTCACCTAGTGCAG” reads 8550 fluorescence intensity (a.u.); that for “TATACCATTGAATGCTCACCGGTTTCCTCATATGCCCTTGCGGAGTCACCTAGTGCAG”, 8530 fluorescence intensity (a.u.).
